The text below walks through data of article PMC11091212.

Chains of the proteins cited; added tags and fusions are not shown. Lines headed by an entry give the natural chain unless they say otherwise; changes in a name come on top. A line that says so, or that is headed by a name, gives the form on record, which may keep a tag or linker. Residues count along the entry.
MFAP4_(C34S) (P55083, form named): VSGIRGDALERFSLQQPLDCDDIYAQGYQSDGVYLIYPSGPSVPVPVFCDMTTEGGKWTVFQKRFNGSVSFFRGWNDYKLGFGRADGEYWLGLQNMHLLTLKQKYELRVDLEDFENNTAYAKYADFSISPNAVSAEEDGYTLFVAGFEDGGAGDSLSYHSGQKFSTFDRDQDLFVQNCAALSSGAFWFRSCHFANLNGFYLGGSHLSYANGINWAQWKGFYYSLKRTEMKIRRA
UniProt Q9UBX5, residues 24-448: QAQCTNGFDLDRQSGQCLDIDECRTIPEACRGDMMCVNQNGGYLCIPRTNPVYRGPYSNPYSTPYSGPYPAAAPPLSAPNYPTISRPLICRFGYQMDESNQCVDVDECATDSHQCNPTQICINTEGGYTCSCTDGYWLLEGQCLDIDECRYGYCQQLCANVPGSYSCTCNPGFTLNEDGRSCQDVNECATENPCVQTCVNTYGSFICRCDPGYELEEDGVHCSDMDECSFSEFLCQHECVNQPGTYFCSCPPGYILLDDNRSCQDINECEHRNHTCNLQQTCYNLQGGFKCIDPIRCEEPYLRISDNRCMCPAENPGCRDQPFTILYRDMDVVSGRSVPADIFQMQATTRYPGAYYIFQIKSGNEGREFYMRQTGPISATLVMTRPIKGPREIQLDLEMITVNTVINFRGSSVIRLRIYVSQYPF

Results are given in words; binding and its absence hold for the method and conditions named.

Assay [1] deals with MFAP4_(C34S) (human) (UniProt P55083). Kind of assay: SPR; Ca2+ form (octamer): MFAP4 or MFAP4_(C34S) amine-coupled on CM5 (Biacore X), elastogenic proteins as analytes 5-100 µg/mL in TBS/Ca2+ (2 mM CaCl2); 1:1 Langmuir fit, KD is the average over five concentrations; both purified. Background: SPR reads the build-up and loss of mass on a sensor chip optically.
Assay [2] has the same target. Kind of assay: SPR; Ca2+-depleted form (tetramer): MFAP4 or MFAP4_(C34S) treated with 5 mM EDTA, dialysed against TBS, amine-coupled on CM5; analytes dialysed against TBS, 5-100 µg/mL, running buffer TBS without Ca2+; both purified.

With fibulin-5 (from UniProt Q9UBX5 24-448), the binding result with MFAP4_(C34S) (human) [1] and in the assay with MFAP4_(C34S) (human) [2] was “no binding (tested: 100 µg/mL)” each time.
